## Primary screen of a compound library

Data taken from ChEMBL document CHEMBL3988442, “University of Dundee, Small-Polar-MMV Screening Library” (2021).

A: 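Growth of Mycobacterium tuberculosis over 3 days (7H9 medium with glucose and tyloxapol); the read-out is not stated. Tested at 500 µM. Direction is inferred from retests: higher values go with more growth inhibition. About 18,000 compounds were tested under these conditions; 7.9% (about 1,400) showed 50% or more at least once.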
B: 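Growth of Mycobacterium tuberculosis over 4 days (cholesterol / DPPC medium with tyloxapol); the read-out is not stated. Concentration: 500 µM. The record gives no direction; compounds that gave an IC50 in retests scored well above the rest, so higher reads as more growth inhibition. About 18,000 compounds were tested under these conditions; 5% (about 900) showed 50% or more at least once.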

Each number is a percent effect as filed.
The record does not define 0% and 100%; most values in the screen are far below 50% and negative numbers occur (in some assays of this library far below -100).
Compounds were drawn at random from those tested, without regard to their results.

| SMILES | A | B |
|---|---|---|
| `CNC(=O)Nc1ccc2c(c1)C(=O)N(C)C2=O` | 5.148% | 6.53% |
| `CNC(=O)c1ccc(CN(C)CC2(C)COC2)cc1` | 15.51% | 10.28% |
| `CN(C)S(=O)(=O)NCCCC(C)(C)CO` | 8.078% | 10.3% |
| `CCC(C#N)NC(=O)c1cccc(CN2CCCC2)c1` (stereo unspecified) | 27.91% | 20% |
| `CC(C)(C)C(=O)N1CCC(O)(C(F)(F)F)C1` (stereo unspecified) | 6.377% | -4.996% |
| `Nc1ccc(CC2CCNCC2)cn1` | 23.28% | -0.699% |
| `COc1cccc(N2CCNCC2=O)c1` | -11.25% | -7.53% |
| `CC(=O)COC(=O)CC(NC(N)=O)c1ccc(Cl)cc1` (stereo unspecified) | -0.306% | -21.84% |
| `CN(C)c1ncc(CNC(=O)C2CC2)n1C` | 23.03% | 19.35% |
| `CN1CCCN(C(=O)c2ccc(N(C)C)cc2F)CC1` | 17.48% | 6.789% |
| `NC1COC2(CCC2)C1` (stereo unspecified) | -5.798% | -9.844% |
| `NCc1nc(-c2cccc(Cl)c2)no1` | 57.25% | 54.62% |
| `COc1ccc(Cl)c(N2CCNCC2)c1` | 45.6% | 35.32% |
| `N[C@@H]1C[C@H](O)[C@H]1n1cccn1` | 8.646% | 5.182% |
| `CC1(C)CN(C(=O)c2cscn2)CCS1(=O)=O` | 4.313% | 6.206% |
| `O=C(C1CCCC1)N1CCCNCC1` | 4.267% | -11.96% |
| `Cc1csc(CCN)n1` | 56.42% | 35.08% |
| `CCN(CC)C(=O)C1CCCN1Cc1cccnc1` (stereo unspecified) | -12.84% | -20.92% |
| `c1ccc(CC2CCNCC2)nc1` | -16.32% | -19.07% |
| `CC(N)c1nc2c(s1)CCC2` (stereo unspecified) | -8.962% | -13.57% |
| `O=C(NCCc1nc2c(s1)CCC2)c1cn[nH]c1` | 23.75% | -6.38% |
| `Cc1ccccc1-c1[nH][nH]c(=O)c1CCN` | 58.51% | 14.44% |
| `CC(NC(=O)CCCn1cncn1)c1cnn(C)c1` (stereo unspecified) | 7.088% | 2.448% |
| `CC(C)(N)CN1CCN(c2cccc(Cl)c2)CC1` | 87.79% | 91.3% |
| `NCc1cccc(F)c1OC(F)F` | -10.25% | -9.776% |
| `Cc1ccc(C(=O)NCCNc2ccncc2)c(=O)[nH]1` | 12.96% | 2.637% |
| `CC(C)OCCOCC(O)CN(C)Cc1cccnc1` (stereo unspecified) | -11.74% | -6.918% |
| `CCc1n[nH]c(C(=O)NCCNc2cccnc2)c1C` | 10.08% | 1.792% |
| `CCN(CC)C(CNC1=NCCN1)c1ccco1` (stereo unspecified) | 15.35% | 16.93% |
| `CC(=O)c1cccc(S(=O)(=O)N(C)CC(=O)N(C)C)c1` | 0.1184% | -12.55% |
| `CCc1cc(C(N)=O)sc1C` | 29.13% | 6.79% |
| `NS(=O)(=O)Cc1cc(-c2ccccc2)no1` | 10.8% | -2.488% |
| `CCC(C(=O)NCCCc1ccco1)n1cccn1` (stereo unspecified) | 15.92% | -7.958% |
| `O=C(CCc1cccnc1)NCC1(O)CCCNCC1` (stereo unspecified) | 10.62% | -0.1153% |
| `C[C@@H]1CN(C(=O)c2csc(CN(C)C)n2)C[C@]1(C)O` | 3.122% | -20.66% |
| `Cc1c(CN)cnn1C` | 11.39% | 19.77% |
| `Cc1cc(=O)n(CCN(C)CC2(C)COC2)c(=O)[nH]1` | -6.368% | -4.368% |
| `CC(=O)NC(C)C(=O)Nc1ccccn1` (stereo unspecified) | 3.017% | 0.4798% |
| `CN1C(=O)CNc2ccccc21` | -29.21% | -46.1% |
| `COCC(N)c1ccc(C)o1` (stereo unspecified) | 19.88% | -1.988% |
| `COC(=O)CSc1nc2cc(F)c(F)cc2[nH]1` | 14.51% | 3.179% |
| `OC1CSCc2ccccc21` (stereo unspecified) | -1.873% | -10.72% |
| `CCNCC1CCOC1` (stereo unspecified) | -3.174% | 0.1593% |
| `COC(=O)C(O)CNc1ccc(C(F)(F)F)cn1` (stereo unspecified) | 59.04% | 60.39% |
| `Cc1ccc(CNC(=O)NC(C)Cn2cccn2)n1C` (stereo unspecified) | 7.751% | 14.62% |
| `O=C(c1ccccn1)N1CCC2(CCCC2)CC1` | 68.87% | 75.91% |
| `[H][C@@]12CCN(C(=O)c3cnc(CC)nc3)C[C@@]([H])(CC1)N2C` | 10.73% | 1.336% |
| `CC(C)=CCCNC(=O)N1CCC[C@H]1CO` | 8.64% | 7.064% |
| `CC(C)(NC(=O)c1cc2ccc(Br)cc2[nH]1)C(N)=O` | 41.43% | 35.16% |
| `CCC(c1ccc(OC)cc1)N(C)CCO` (stereo unspecified) | 9.524% | 7.224% |
| `CC(C)C1CN(C)CCN1Cc1ccccn1` (stereo unspecified) | 11.7% | 16.07% |
| `COCCN(C)CCCNC(=O)c1cc(Cl)c[nH]1` | 9.432% | -3.82% |
| `CC[C@H]1COCCN1C(=O)CCCn1cccn1` | -4.731% | -6.6% |
| `CNC(=O)c1ccc(CN(C)CCC(C)O)cc1` (stereo unspecified) | -7.027% | 7.533% |
| `CC(CNC(=O)c1cc(Br)c[nH]1)N(C)C` (stereo unspecified) | 4.031% | 9.696% |
| `O=C(c1coc(CN2CCOCC2)c1)N1CCSCC1` | -2.275% | 9.385% |
| `O=C1CN(CC(=O)Nc2ccc(Cl)cc2Cl)CCN1` | 16.11% | 2.801% |
| `COCC(NC(=O)Nc1ccccc1F)C(N)=O` (stereo unspecified) | 23.39% | 13.49% |
| `O=C(Cn1ccnc1)Nc1ccccc1Br` | -3.058% | -16.61% |
| `CC(=O)N1CCC(n2ccc(C(F)(F)F)n2)CC1` | 30.42% | 23.72% |
| `CC1CCCCN1CCN` (stereo unspecified) | -7.295% | 2.121% |
| `CCC(=O)N1CCN(CCCN2CCCCC2)CC1` | -3.447% | -13.96% |

The last 5 entries again:

{"smiles": "COCC(NC(=O)Nc1ccccc1F)C(N)=O", "stereo": "stereo unspecified", "A": 23.39, "B": 13.49}
{"smiles": "O=C(Cn1ccnc1)Nc1ccccc1Br", "A": -3.058, "B": -16.61}
{"smiles": "CC(=O)N1CCC(n2ccc(C(F)(F)F)n2)CC1", "A": 30.42, "B": 23.72}
{"smiles": "CC1CCCCN1CCN", "stereo": "stereo unspecified", "A": -7.295, "B": 2.121}
{"smiles": "CCC(=O)N1CCN(CCCN2CCCCC2)CC1", "A": -3.447, "B": -13.96}